According to PubChem BioAssay AID504467 (National Center for Advancing Translational Sciences (NCATS), 2011):
Screen size: about 330,000 compounds; about 7,700 (2.3%) were called active. Inconclusive means that the source gave no clear call. Such entries were picked first, then a sample of the others. Calls follow the shape of the dose curve; as a rule, active = well fitted inhibition curve with a large enough effect; inconclusive = small, poorly fitted or top-dose-only effect, or effect the other way; inactive = flat fitted curve, though single readings scatter. A potency beside an inconclusive call is a rough fit, not a confirmed value.

Test: qHTS screen for small molecules that inhibit ELG1-dependent DNA repair in human embryonic kidney (HEK293T) cells expressing luciferase-tagged ELG1; also: nearly all actives have a fitted effect of over 55% in size
Settings: HEK293T ELG1-luciferase reporter, luminescence, 16 h, DNA damage induced by 5-fluorouridine; activity change, negative = inhibition: at 46.1 µM (top of the series)
Outline: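 Reporter activity after DNA damage by 5-fluorouridine is monitored. Compound-treated cells incubate 16 hr at 37 °C, then ONE-Glo is added for 30 min before luminescence reading.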
% is scaled to controls: 0 for no effect and ±100 for the full control effect; potency is read from the fitted curve at half-maximal effect.

Row | SMILES | activity change, negative = inhibition | Potency
1 | COCCNC(=O)Cn1c(=O)n(Cc2ccco2)c(=O)c2ccccc21 | inactive: 9.07% | –
2 | Cc1cc(=O)[nH]c(SCC(=O)Nc2nonc2C)n1 | inactive: -2.42% | –
3 | CCC(=O)Nc1ccc(N2CCCCC2)cc1 | – | inconclusive: 20.6 µM [activator, partial curve]
4 | Cc1cccc(N2CCN(C(=O)c3ccc4ncsc4c3)CC2)c1C | inactive: 19.8% | –
5 | CCOC(=O)Cn1c(=O)c2c(nc(N3CCCCC3)n2Cc2ccccc2)n(C)c1=O | – | inconclusive: 29.1 µM [inhibitor, single point]
6 | O=C(CSc1nnc(-c2cccc(F)c2)o1)Nc1nncs1 | – | inconclusive: 32.6 µM [activator, single point]
7 | CCN(CC)CCCNc1oc(/C=C/c2ccccc2)nc1C#N | – | inconclusive: 23.1 µM [activator, single point]
8 | CCOC(=O)N1CCN(C(=O)c2ccc3c(=O)n(Cc4ccccc4OC)c(=S)[nH]c3c2)CC1 | inactive: -29.7% | –
9 | O=c1c2ccccc2nc(/C=C/c2ccc([N+](=O)[O-])cc2)n1CCCO | – | active: 18.4 µM
10 | Cc1cccc(CC(Cc2nc3ccccc3[nH]2)c2nc3ccccc3[nH]2)c1 (centres undefined) | – | inconclusive: 20.6 µM [inhibitor, partial curve]
11 | CC(C)Oc1cccc(C(=O)NC2=NCCS2)c1 | – | inconclusive: 20.6 µM [activator, partial curve]
12 | CC(=O)c1c(N2CCC(C(N)=O)CC2)nc(=S)n(-c2ccccc2)c1C | – | inconclusive: 10.3 µM [activator, partial curve, poor fit]
13 | CCC1CCCCN1S(=O)(=O)c1ccc2[nH]c(=O)ccc2c1 (centres undefined) | – | inconclusive: 23.1 µM [activator, single point]
14 | O=C(CSc1nnc(-c2ccc(O)cc2)o1)Nc1ccccc1 | – | inconclusive: 4.11 µM [activator, full curve]
15 | Cc1ccc(C(=O)N/N=C/C=C/c2ccccc2)o1 | – | inconclusive: 29.1 µM [activator, single point]
16 | O=C(NN=Cc1ccccc1Cl)c1ccc(-n2cnnn2)cc1 | – | inconclusive: 23.1 µM [inhibitor, single point]
17 | Cc1c(C(=O)N2CCN(c3ncccn3)CC2)oc2ccc(F)cc12 | – | inconclusive: 29.1 µM [inhibitor, single point]
18 | Cn1c(SCC(=O)N2CCCc3ccccc32)nc2cccnc21 | – | inconclusive: 20.6 µM [inhibitor, partial curve, poor fit]
19 | CC1CCCCN1C(=O)c1cc(-c2ccc(Cl)c(Cl)c2)on1 (centres undefined) | – | inconclusive: 16.4 µM [activator, partial curve]
20 | CC(=O)NCCc1ccc(S(=O)(=O)NC2OC(=O)c3ccccc32)cc1 (centres undefined) | inactive: -1.08% | –
21 | O=c1c2ccccc2nc(SCc2nc3ccccc3s2)n1Cc1ccco1 | – | inconclusive: 23.1 µM [inhibitor, single point]
22 | CCOC(=O)N1CCN(c2c(NCc3ccccc3Cl)c(=O)c2=O)CC1 | – | inconclusive: 29.1 µM [inhibitor, single point]
23 | COc1ccc(CC(=O)NCCc2cnc[nH]2)cc1 | inactive: 2.04% | –

Row | SMILES | activity change, negative = inhibition | Potency
24 | CNC(=O)CN(C1CCCCC1)S(=O)(=O)c1ccc(F)cc1 | inactive: 4.63% | –
25 | Cc1ccc(-n2c(SCC(=O)Nc3ccc(Cl)cc3)nc(O)cc2=O)cc1 | – | inconclusive: 18.3 µM [activator, single point]
26 | O=[N+]([O-])c1ccc2c(OCc3nnc(-c4ccccc4Br)o3)ncnc2c1 | – | inconclusive: 23.1 µM [inhibitor, single point]
27 | O=C(CN1CCN(c2nc(-c3ccccc3)cs2)CC1)Nc1ccc2c(c1)OCO2 | – | inconclusive: 29.1 µM [inhibitor, single point]
28 | C/C(=N\NC(=O)c1cccc(Cl)c1)C1C(=O)c2ccccc2C1=O | inactive: -0.257% | –
29 | COc1ccc(/C=N/n2cnc3c([nH]c4ccc(C)cc43)c2=O)cc1CN1CCCC1 | – | inconclusive: 1.16 µM [activator, partial curve, poor fit]
30 | CC(C)Cn1c(SCC(=O)N2CCN(S(=O)(=O)c3ccccc3)CC2)nc2ccccc21 | – | inconclusive: 16.4 µM [inhibitor, single point]
31 | Cc1ccc(C)c(NS(=O)(=O)c2ccc(-c3cnc(C4CC4)o3)cc2)c1 | – | inconclusive: 29.1 µM [inhibitor, single point]
32 | COc1ccccc1/C=N/NC(=O)C(C)Cn1cnc2ccccc21 (centres undefined) | – | inconclusive: 14.6 µM [activator, partial curve, poor fit]
33 | Cc1cccc2nc(C(=O)Nc3cccc(C(=O)NC4CC4)c3)cn12 | – | inconclusive: 2.51 µM [activator, full curve]
34 | O=C(CCC(=O)Nc1cccc(Cl)c1)N/N=C/c1cc([N+](=O)[O-])ccc1O | – | inconclusive: 16.4 µM [inhibitor, single point]
35 | Nc1nonc1-n1nnc(C(=O)N/N=C\c2cccc(Cl)c2)c1CN1CCOCC1 | inactive: -2.04% | –
36 | Cc1ccc(NC(=O)C(C)Sc2nnc3ccccn23)cc1 (centres undefined) | – | inconclusive: 8.2 µM [activator, single point]
37 | O=S(=O)(NCC1CCCN(Cc2ccccc2O)C1)c1cccc2cccnc12 (centres undefined) | inactive: -0.387% | –
38 | Fc1ccc(-c2nc3c(-c4ccccc4)cnn3cc2CCN2CCOCC2)cc1 | – | inconclusive: 20.6 µM [inhibitor, partial curve, poor fit]
39 | CCOC(=O)c1cnc2ccccc2c1NCCO | inactive: -19.8% | –
40 | O=C(c1cc[n+]([O-])cc1)N1CCc2c([nH]c3ccccc23)C1c1ccccc1Cl (centres undefined) | inactive: -12.6% | –
41 | COc1cc(OC)cc(-c2nnc(SCc3c(F)cccc3Cl)o2)c1 | – | inconclusive: 23.1 µM [activator, single point]
42 | CCOP(=O)(c1ccccc1)c1nc(-c2ccc(F)cc2)oc1N1CCCCC1 (centres undefined) | inactive: -2.95% | –
43 | CCCCCCSc1cc(-c2nc3ccc(C)cn3c2NCc2ccccc2)ccc1OC | – | inconclusive: 7.94 µM [inhibitor, single point]
44 | COc1cc(NC(=O)C2CCCN(S(=O)(=O)c3ccc4c(c3)oc(=O)n4C)C2)cc(OC)c1 (centres undefined) | – | inconclusive: 32.6 µM [inhibitor, partial curve, poor fit]
45 | CCOc1cc2[nH]c(=S)n(CCCOC)c(=O)c2cc1OCC | inactive: -7.54% | –
46 | C=CCn1c(CSc2ccc(C)cc2)n[nH]c1=S | inactive: 16.4% | –

Quoted from above, nos. 44 to 46
Row | SMILES | activity change, negative = inhibition | Potency
44 | COc1cc(NC(=O)C2CCCN(S(=O)(=O)c3ccc4c(c3)oc(=O)n4C)C2)cc(OC)c1 (centres undefined) | – | inconclusive: 32.6 µM [inhibitor, partial curve, poor fit]
45 | CCOc1cc2[nH]c(=S)n(CCCOC)c(=O)c2cc1OCC | inactive: -7.54% | –
46 | C=CCn1c(CSc2ccc(C)cc2)n[nH]c1=S | inactive: 16.4% | –

(list continues)

Row | SMILES | activity change, negative = inhibition | Potency
47 | CCc1cc(C(=O)N2CCN(c3ccccc3OC)CC2)sc1C | – | inconclusive: 10.3 µM [inhibitor, partial curve, poor fit]
48 | CCCS(=O)(=O)NCCc1cc2ccc(OC)cc2[nH]c1=O | – | inconclusive: 23.1 µM [activator, single point]
49 | COc1ccc(S(=O)(=O)N(CC(=O)Nc2cccnc2)c2ccccc2OC)cc1 | – | inconclusive: 16.4 µM [inhibitor, partial curve]
50 | C=CCn1c(SCC(=O)NCC(c2ccccc2)N(C)C)nnc1C1CCCCC1 (centres undefined) | inactive: 18% | –
51 | COc1ccc(-n2nc(C(=O)NCC(=O)NC3CCCCCC3)c3ccccc3c2=O)cc1OC | – | active: 18.3 µM
52 | O=C(Nc1ccccc1)C(=O)c1cn(CC(=O)N2CCCCC2)c2ccccc12 | – | inconclusive: 20.6 µM [inhibitor, single point]
53 | COc1ccc(NC(=O)c2ccc(-n3nc(C)cc3C)cc2)cc1OC | – | inconclusive: 9.2 µM [activator, single point]
54 | COc1ccc(-c2onc(C)c2-c2ccccc2)c(O)c1 | – | inconclusive: 20.6 µM [inhibitor, single point]
55 | COc1ccccc1C(=O)COC(=O)COc1cccc2c1OC(C)(C)C2 | – | inconclusive: 16.4 µM [activator, partial curve]
56 | Cc1ccc(-c2csc(NC(=O)c3cccs3)n2)cc1 | – | inconclusive: 16.4 µM [activator, partial curve]
57 | Cc1ccc(C)c(CN2C(=O)CSc3ccc(C(=O)NCCN4CCOCC4)cc32)c1 | inactive: 7.3% | –
58 | CC(C)c1ccc(CNc2cc(N3CCCC3)ccc2[N+](=O)[O-])cc1 | inactive: 12.3% | –
59 | CC1Cc2ccccc2N1S(=O)(=O)c1cccc2nsnc12 (centres undefined) | inactive: -9.27% | –
60 | CCc1ccc(OCC(=O)NCC(c2ccc(Cl)cc2)N2CCCCC2)cc1 (centres undefined) | – | inconclusive: 18.3 µM [activator, single point]
61 | COC(=O)c1ccc(OCC(=O)c2ccccc2)cc1 | – | inconclusive: 9.2 µM [activator, partial curve]
62 | O=C(N/N=C/c1ccc2ncccc2c1)c1cc(-c2cccs2)nc2ccccc12 | – | inconclusive: 32.6 µM [inhibitor, partial curve, poor fit]
63 | Cc1ccc(NC(=O)COc2ccc3c(c2)OCO3)c(Cl)c1 | – | inconclusive: 14.1 µM [activator, partial curve]
64 | COc1ccc(C(=O)N2CCCC(c3nc(-c4cccs4)no3)C2)cc1 (centres undefined) | inactive: -9.8% | –
65 | CCc1cc2c(=O)c(-c3nc4ccccc4n3C)c(C(C)C)oc2c(CN2CCN(C)CC2)c1O | – | inconclusive: 0.82 µM [inhibitor, full curve, poor fit]
66 | CCCCNC(=O)C(C1CCCCC1)N(CCN(C)C)C(=O)CCCN1C(=O)NC(c2ccc(-c3ccccc3)cc2)C(C(=O)OCc2ccccc2)=C1C (centres undefined) | – | inconclusive: 29.1 µM [inhibitor, single point]
67 | Cc1ccc(S(=O)(=O)Oc2ccccc2/C=C2\SC(=O)NC2=O)cc1 | – | inconclusive: 18.3 µM [inhibitor, partial curve, poor fit]
68 | COc1ccc(-c2c(-c3cc(OC)cc(OC)c3)n(C)c3ccc(-c4ccn[nH]4)cc23)cc1 | – | active: 6.51 µM
69 | Cc1nnsc1S(=O)c1ccc(F)cc1 (centres undefined) | inactive: -0.514% | –
